For the assay, the target named is T1, MS4A6A (human (endogenous in primary human macrophages)) (UniProt Q9H2W1).
T1 sequence: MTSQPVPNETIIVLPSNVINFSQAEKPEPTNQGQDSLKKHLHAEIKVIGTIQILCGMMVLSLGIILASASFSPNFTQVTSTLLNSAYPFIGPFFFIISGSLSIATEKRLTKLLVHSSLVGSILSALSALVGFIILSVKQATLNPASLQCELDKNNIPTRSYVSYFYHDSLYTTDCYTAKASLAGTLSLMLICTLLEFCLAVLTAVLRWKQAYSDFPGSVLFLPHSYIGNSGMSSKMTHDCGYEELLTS
The assay can be described thus: co-IP.

By UniProt entry, the sequences of proteins in these tests, tags left out. Residues count along the entry.
UniProt O43914, residues 22-113: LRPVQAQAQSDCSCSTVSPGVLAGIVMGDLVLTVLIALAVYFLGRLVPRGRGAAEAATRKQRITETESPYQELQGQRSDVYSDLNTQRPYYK

These are yes or no findings as the source states them, for the method shown. In cells and extracts the contact can be indirect. Some results given as binding are weak or reduced against the parent protein; the word gives no strength.

Consider “DAP12 (encoded by TYROBP) (from UniProt O43914 22-113)”, for which the binding entry was “binds”.

B1: TREM2 (receptor, UniProt Q9NZC2 19-230)
chain: HNTTVFQGVAGQSLQVSCPYDSMKHWGRRKAWCRQLGEKGPCQRVVSTHNLWLLSFLRRWNGSTAITDDTLGGTLTITLRNLQPHDAGLYQCQSLHGSEADTLRKVLVEVLADPLDHRDAGDLWFPGESESFEDAHVEHSISRSLLEGEIPFPPTSILLLLACIFLIKILAASALWAAAWHGQKPGTHPPSELDCGHDPGYQLQTLPGLRDT
Consider B1, for which the binding entry is listed as “no binding”.

These data come from publication doi:10.1101/2024.11.23.625001.
